According to article PMC3556083:
These are yes or no findings as the source states them, for the method shown. In cells and extracts the contact can be indirect. Here binding means that the protein was enriched with, or labelled near, the bait; the list need not be complete.

By UniProt entry, the sequences of proteins in these tests, tags left out. Where a name states a change or a piece, a line headed by the entry shows the natural chain unless it says otherwise. Residues count along the entry.
UniProt Q07969: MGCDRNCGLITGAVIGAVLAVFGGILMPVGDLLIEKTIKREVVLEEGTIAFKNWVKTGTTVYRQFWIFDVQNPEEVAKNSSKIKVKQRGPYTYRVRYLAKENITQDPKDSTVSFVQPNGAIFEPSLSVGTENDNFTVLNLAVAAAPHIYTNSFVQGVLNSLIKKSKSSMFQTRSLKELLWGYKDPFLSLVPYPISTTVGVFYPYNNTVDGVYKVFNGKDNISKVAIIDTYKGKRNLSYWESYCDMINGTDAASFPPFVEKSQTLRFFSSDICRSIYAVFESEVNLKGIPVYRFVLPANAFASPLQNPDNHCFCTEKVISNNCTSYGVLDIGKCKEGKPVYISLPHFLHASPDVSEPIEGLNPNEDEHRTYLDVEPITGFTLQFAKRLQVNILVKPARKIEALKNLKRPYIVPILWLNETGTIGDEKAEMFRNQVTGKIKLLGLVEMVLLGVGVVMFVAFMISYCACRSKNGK
UniProt P63170: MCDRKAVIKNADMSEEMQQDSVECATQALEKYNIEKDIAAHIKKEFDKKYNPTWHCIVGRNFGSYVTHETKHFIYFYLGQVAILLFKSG
UniProt Q62868: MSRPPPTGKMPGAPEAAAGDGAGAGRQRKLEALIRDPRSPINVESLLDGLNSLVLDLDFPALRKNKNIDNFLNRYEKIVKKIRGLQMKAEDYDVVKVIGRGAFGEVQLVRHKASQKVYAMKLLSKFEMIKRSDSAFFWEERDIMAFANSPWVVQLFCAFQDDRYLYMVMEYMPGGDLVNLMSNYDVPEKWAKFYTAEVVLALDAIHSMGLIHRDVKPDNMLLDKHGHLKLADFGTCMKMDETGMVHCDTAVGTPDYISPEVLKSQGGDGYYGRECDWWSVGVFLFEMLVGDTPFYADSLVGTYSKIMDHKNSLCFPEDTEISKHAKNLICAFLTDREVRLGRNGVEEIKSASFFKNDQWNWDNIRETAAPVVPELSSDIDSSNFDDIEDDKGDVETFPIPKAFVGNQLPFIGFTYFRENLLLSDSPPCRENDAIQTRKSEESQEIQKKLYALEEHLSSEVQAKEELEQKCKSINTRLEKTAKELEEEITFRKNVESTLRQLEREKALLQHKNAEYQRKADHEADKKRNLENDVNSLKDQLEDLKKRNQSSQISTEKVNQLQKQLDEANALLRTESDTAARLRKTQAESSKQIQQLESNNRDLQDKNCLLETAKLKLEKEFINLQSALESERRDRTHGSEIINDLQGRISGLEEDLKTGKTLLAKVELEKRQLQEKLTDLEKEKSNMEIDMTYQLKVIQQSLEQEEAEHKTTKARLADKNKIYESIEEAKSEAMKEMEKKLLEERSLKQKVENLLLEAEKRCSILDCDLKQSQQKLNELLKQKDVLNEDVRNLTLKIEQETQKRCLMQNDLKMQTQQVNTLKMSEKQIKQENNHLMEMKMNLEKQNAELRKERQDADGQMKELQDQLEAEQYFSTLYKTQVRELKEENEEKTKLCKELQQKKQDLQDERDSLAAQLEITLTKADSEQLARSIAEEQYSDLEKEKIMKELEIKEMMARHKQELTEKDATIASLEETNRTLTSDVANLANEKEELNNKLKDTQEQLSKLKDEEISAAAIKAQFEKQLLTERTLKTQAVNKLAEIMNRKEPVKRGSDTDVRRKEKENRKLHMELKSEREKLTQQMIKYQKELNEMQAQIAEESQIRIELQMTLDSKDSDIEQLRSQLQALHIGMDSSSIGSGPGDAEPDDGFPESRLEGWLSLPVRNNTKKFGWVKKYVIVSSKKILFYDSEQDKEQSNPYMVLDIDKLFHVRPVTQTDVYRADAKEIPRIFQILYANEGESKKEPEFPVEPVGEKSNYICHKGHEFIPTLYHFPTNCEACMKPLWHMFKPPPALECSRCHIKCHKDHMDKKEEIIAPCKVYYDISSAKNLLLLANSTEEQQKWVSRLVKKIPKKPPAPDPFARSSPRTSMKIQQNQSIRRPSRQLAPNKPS
UniProt P62142: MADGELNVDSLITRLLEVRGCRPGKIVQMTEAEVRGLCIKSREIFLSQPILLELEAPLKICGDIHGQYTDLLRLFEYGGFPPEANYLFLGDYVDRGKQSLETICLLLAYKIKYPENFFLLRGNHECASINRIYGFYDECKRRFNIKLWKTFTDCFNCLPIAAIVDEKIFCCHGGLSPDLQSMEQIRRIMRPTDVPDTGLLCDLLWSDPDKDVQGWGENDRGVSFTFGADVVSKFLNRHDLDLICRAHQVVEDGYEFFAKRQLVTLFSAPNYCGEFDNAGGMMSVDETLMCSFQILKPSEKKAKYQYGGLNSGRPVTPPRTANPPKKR
UniProt Q62639: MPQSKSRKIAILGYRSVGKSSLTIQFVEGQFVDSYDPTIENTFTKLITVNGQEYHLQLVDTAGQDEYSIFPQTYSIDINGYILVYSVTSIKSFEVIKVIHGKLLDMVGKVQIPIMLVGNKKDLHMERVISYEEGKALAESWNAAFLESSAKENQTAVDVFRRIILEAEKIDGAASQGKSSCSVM
UniProt Q2TA68, residues 88-960: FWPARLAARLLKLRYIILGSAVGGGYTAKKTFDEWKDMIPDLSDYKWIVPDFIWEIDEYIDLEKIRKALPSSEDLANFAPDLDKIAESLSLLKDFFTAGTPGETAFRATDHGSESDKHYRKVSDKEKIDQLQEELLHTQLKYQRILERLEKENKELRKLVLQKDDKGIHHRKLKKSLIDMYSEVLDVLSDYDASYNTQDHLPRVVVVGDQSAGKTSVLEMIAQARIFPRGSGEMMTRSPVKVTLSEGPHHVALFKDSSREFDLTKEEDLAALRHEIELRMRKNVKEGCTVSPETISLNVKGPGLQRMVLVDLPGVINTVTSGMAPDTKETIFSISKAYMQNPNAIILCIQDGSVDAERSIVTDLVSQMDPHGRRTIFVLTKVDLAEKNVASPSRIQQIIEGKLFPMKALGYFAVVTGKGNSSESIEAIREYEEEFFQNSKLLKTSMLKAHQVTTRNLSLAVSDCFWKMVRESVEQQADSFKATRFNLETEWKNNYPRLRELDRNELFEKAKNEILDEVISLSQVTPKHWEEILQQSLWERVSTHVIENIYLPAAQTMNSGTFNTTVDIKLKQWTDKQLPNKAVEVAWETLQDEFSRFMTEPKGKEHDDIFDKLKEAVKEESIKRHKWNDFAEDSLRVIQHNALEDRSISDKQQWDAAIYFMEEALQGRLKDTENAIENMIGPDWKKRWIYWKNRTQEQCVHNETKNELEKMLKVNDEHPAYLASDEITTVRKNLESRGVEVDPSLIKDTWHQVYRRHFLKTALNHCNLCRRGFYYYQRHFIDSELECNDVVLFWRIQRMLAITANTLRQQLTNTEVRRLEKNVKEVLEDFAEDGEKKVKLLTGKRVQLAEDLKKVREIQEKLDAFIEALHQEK
UniProt P63102: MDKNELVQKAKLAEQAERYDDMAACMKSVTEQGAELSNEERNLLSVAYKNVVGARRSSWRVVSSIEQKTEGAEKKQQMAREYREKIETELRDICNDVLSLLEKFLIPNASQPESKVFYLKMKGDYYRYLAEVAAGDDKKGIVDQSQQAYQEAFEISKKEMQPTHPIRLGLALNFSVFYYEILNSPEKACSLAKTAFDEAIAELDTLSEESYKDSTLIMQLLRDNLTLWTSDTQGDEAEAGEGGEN
UniProt Q5XID1: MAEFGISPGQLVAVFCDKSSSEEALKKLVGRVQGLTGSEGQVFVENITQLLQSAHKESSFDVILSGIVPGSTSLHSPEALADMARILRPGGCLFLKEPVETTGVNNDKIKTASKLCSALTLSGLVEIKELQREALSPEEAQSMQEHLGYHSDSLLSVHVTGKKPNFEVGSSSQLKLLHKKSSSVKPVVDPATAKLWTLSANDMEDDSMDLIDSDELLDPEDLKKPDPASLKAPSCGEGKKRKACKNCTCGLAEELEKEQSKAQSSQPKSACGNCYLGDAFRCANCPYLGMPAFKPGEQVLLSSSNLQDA
UniProt P01026, residues 25-1663: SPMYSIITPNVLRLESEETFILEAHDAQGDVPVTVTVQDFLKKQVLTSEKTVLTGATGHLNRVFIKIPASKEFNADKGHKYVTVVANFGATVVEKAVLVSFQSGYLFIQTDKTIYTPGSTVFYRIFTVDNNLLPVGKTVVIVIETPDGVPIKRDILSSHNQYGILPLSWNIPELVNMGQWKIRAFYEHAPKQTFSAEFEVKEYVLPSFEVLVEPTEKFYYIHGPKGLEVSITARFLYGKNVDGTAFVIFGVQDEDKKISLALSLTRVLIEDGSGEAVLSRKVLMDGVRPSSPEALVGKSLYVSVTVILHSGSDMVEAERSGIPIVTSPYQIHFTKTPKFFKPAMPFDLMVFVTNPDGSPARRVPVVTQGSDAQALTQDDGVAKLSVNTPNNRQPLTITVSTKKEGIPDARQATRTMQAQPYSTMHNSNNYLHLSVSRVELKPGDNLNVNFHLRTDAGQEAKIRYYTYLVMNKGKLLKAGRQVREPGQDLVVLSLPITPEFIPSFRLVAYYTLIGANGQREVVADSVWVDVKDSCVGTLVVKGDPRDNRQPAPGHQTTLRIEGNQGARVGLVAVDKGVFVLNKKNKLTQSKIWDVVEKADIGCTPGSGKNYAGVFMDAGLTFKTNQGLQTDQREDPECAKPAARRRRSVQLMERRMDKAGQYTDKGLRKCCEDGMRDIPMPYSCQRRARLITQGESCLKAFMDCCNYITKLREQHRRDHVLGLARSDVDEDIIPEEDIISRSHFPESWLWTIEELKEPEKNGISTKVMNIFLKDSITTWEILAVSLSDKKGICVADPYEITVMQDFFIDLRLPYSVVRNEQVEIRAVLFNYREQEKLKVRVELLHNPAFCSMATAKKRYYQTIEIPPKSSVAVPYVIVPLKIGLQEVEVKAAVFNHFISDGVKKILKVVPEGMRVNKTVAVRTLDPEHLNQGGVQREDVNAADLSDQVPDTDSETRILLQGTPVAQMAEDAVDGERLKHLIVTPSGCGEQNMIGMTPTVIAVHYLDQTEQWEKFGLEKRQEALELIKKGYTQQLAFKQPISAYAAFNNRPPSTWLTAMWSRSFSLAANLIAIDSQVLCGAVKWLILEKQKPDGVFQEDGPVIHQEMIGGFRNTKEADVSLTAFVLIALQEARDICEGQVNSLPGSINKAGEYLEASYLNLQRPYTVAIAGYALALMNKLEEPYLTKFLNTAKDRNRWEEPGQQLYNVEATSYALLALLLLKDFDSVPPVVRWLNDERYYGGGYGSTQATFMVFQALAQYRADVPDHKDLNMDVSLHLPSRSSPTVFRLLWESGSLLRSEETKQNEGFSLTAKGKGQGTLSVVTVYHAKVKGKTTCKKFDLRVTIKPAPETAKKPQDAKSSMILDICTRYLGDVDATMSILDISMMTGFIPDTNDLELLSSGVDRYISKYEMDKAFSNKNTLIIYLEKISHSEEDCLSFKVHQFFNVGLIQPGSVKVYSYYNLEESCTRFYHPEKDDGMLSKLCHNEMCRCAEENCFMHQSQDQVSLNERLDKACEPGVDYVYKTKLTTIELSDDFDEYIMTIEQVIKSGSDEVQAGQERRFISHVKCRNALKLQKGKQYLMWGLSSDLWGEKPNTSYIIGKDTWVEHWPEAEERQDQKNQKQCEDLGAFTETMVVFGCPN
UniProt P97571: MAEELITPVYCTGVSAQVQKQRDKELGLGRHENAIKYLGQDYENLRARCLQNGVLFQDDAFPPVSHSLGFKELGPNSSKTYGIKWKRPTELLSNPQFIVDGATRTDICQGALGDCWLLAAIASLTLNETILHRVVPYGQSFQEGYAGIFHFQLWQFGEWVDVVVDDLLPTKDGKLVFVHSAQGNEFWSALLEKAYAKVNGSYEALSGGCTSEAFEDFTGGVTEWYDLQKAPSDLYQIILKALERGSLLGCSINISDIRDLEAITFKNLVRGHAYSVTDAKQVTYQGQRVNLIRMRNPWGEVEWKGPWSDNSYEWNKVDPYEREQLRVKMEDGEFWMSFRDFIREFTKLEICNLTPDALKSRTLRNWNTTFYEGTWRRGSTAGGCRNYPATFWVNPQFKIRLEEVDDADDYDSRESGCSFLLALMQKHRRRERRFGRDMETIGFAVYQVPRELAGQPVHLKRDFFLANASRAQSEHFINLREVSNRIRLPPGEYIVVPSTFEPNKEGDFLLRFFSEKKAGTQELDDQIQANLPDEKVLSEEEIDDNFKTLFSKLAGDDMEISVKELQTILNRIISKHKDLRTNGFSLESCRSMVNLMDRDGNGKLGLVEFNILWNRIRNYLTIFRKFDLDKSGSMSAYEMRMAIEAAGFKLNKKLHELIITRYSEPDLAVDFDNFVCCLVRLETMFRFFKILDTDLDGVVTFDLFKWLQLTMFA
UniProt Q32PX6: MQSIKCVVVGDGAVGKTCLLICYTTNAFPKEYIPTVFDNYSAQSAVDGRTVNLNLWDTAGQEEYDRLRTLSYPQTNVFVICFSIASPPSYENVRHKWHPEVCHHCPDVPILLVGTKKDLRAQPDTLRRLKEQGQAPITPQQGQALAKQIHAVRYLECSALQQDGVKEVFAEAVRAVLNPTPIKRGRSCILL
UniProt P10888, residues 23-169: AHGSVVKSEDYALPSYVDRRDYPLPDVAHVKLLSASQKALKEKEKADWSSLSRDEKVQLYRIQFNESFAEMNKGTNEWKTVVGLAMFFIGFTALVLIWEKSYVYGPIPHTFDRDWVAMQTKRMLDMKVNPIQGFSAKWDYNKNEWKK

target: β2-adrenergic receptor (UniProt P07550); experiment: affinity purification with mass spectrometry; purified Flag-β2AR in rHDL immobilised on M1 anti-Flag resin, occupied by 50 µM BI-167107 (full agonist) or 50 µM carazolol (inverse agonist); adult rat heart cytosol (10 mg/ml, 4 mM CaCl2) overnight at 4°C; eluted with FLAG peptide and EDTA; gel slices, LC-MS; proteins of the M1 resin, empty rHDL and Ni-NTA controls subtracted; hits of either or both samples; only the target purified

Substance	binding
CD36 (from UniProt Q07969 1-472)	binds
MTHFD1 (from UniProt P27653 1-935)	binds
PPP2CA (from UniProt P63331 1-309)	binds
UGGT1 (from UniProt Q9JLA3 43-1551)	binds
AMPKα2 (from UniProt Q09137 1-552)	binds
DYNLL1 (from UniProt P63170 1-89)	binds
NOL3 (from UniProt Q62881 1-221)	binds
ROCK2 (from UniProt Q62868 1-1388)	binds
PSMD2 (from UniProt Q4FZT9 1-908)	binds
PSME1 (from UniProt Q63797 1-249)	binds
HBB (includes EG:3043) (from UniProt P02091 1-147)	binds
PSMC4 (from UniProt Q63570 1-418)	binds
PRKAB1 (from UniProt P80386 1-270)	binds
RAB1A (from UniProt Q6NYB7 1-205)	binds
STAT3 (from UniProt P52631 1-770)	binds
ATP2A1 (from UniProt Q64578 1-994)	binds
KPNB1 (from UniProt P52296 1-875)	binds
PSMC1 (from UniProt P62193 1-440)	binds
NHERF-2 (from UniProt Q920G2 1-337)	binds
PPP1CB (from UniProt P62142 1-327)	binds
YWHAH (from UniProt P68511 1-246)	binds

Substance	binding
GNB3 (from UniProt P52287 1-340)	binds
GNAI2 (from UniProt P04897 1-355)	binds
RHEB (from UniProt Q62639 1-184)	binds
OPA1 (from UniProt Q2TA68 88-960)	binds
YWHAZ (from UniProt P63102 1-245)	binds
TPP1 (from UniProt Q9EQV6)	binds
AKR1B1 (from UniProt P07943 1-316)	binds
ATP2A3 (from UniProt P18596 1-999)	binds
PPP2CB (from UniProt P62716 1-309)	binds
MPST (from UniProt P97532 1-297)	binds
CAPN2 (from UniProt Q07009 20-700)	binds
AMPKγ1 (from UniProt P80385 1-330)	binds
ARF3 (from UniProt P61206 1-181)	binds
DYNC1H1 (from UniProt P38650 1-4644)	binds
LIPE (from UniProt P15304-2)	binds
MGLL (from UniProt Q8R431 1-303)	binds
PSMC3 (from UniProt Q63569 1-439)	binds
Grb2 (from UniProt P62994 1-217)	binds
SUCLG1 (from UniProt P13086 35-346)	binds
Serine/threonine-protein phosphatase 2B, catalytic subunit alpha (from UniProt P63329 1-521)	binds

Further lines, results first:

binding	Substance
binds	UBA1 (from UniProt Q5U300 1-1058)
binds	SLK (from UniProt O08815 1-1206)
binds	CIAPIN1 (from UniProt Q5XID1 1-309)
binds	RAP1A (from UniProt P62836 1-184)
binds	CUL5 (from UniProt Q9JJ31 1-780)
binds	BAT3 (from UniProt Q6MG49 1-1146)
binds	C3 (from UniProt P01026 25-1663)
binds	CAPN1 (from UniProt P97571 1-713)
binds	RHOG (from UniProt Q32PX6)
binds	DDB1 (from UniProt Q9ESW0 1-1140)
binds	ARF1 (from UniProt P84079 1-181)
binds	ELAVL1 (from UniProt B5DF91 1-326)
binds	NME2 (from UniProt P19804 1-152)
binds	DNM1L (from UniProt O35303 1-755)
binds	PCYT1A (from UniProt P19836 1-367)
binds	PRKAA1 (from UniProt P54645 1-559)
binds	MAP4 (from UniProt Q5M7W5 1-1057)

binding	Substance
binds	COX4I1 (from UniProt P10888 23-169)
binds	YWHAE (from UniProt P62260 1-255)
binds	CLIC4 (from UniProt Q9Z0W7 1-253)
binds	IQGAP1 (from UniProt A0A8I6AJK7 1-1776)
binds	CADPS (from UniProt Q62717 1-1289)
binds	SDHA (from UniProt Q920L2 35-656)
binds	RAB6A (from UniProt Q9WVB1 1-208)
binds	SOD1 (from UniProt P07632 1-154)
binds	HNRNPK (from UniProt P61980 1-463)
binds	ALDH6A1 (from UniProt Q02253 33-535)
binds	CFL1 (from UniProt P45592 1-166)
binds	HSPB1 (from UniProt P42930 1-206)
binds	NRAS (from UniProt Q04970 1-189)
binds	EEF1A1 (from UniProt P62630 1-462)
binds	FIS1 (from UniProt P84817 1-152)
binds	PSME2 (from UniProt Q63798 1-238)
